Assay results reported in PubChem BioAssay AID1508600 (Functional Genomics Laboratory (NCATS/FGL), 2020).
Out of some 53,000 sequences screened, about 3,700 (7%) were called active.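 The calls were made as follows: active = gene knockdowns whose robust z-score for IL-1 alpha signal is at least 2 or at most -2, so actives lie on both sides; inactive = the rest.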 Some of the results follow.

test: Components of the Cytosolic LPS Sensing Pathway: Gene Identification via Genome-wide siRNA Screen; conditions: RAW264.7 macrophages, IL-1a HTRF, actives lie on both sides, screened at 100 nM (by protocol), cells primed 5 h with Pam3CSK4 first;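 also: robust z of the log signal after scaling to non-targeting control siRNA wells of the plate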
In short: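 Supernatant IL-1a by HTRF from RAW264.7 cells primed with Pam3CSK4 (5 hours) and transfected with LipidA (24 hour) after 48h siRNA knockdown at 100 nM; cell viability checked with CellTiter-Glo.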

**Q.** Which z-score does the source give for GCUUAAGGACGCAUUGAAATT against Pthlh here?
**A.** The z-score was inactive: -0.377.

**Q.** For GGUCUUCUUCUUCAAAGCUTT against Mrpl46, which z-score is on record?
**A.** Its z-score is inactive: -1.27.

**Q.** For GCUUCCGAAAUCUGCCAAATT against Cd74, which z-score is on record?
**A.** Its z-score is inactive: 0.603.

**Q.** Which z-score does the source give for GGGUGCUAUUCUCCUUUUUTT against Rab44 here?
**A.** Its z-score is inactive: -1.

**Q.** Which z-score does the source give for GGAAAUGUACAUCAUCAAGTT against Cnga2 here?
**A.** The z-score was inactive: -1.24.

**Q.** With GGGAAUAUUUGGAUAACUUTT against Pak7 as the sequence, how does the z-score read?
**A.** Its z-score is active: 4.24.

**Q.** With GGACUUGAGUGUGAAUCAATT against Anxa1 as the sequence, how does the z-score read?
**A.** The z-score was inactive: 0.677.

**Q.** For GGCCCAUUAUGUUUAGUAATT against Gm1553, which z-score is on record?
**A.** Its z-score is inactive: 0.745.

**Q.** For GCUCCAUACUUUCACACGATT against H2-Q7, which z-score is on record?
**A.** Its z-score is inactive: 0.659.

**Q.** With GGGAUGUCUGUUGAAAUAATT against Prcc as the sequence, how does the z-score read?
**A.** Its z-score is inactive: -0.422.

**Q.** For GGUCUGCUUUGUCUUGGUGTT against Olfr829, which z-score is on record?
**A.** The z-score was inactive: 0.126.

**Q.** For GGCCCACAAUGUGAUUUUATT against Psap, which z-score is on record?
**A.** Its z-score is inactive: -0.477.

**Q.** Which z-score does the source give for GGGACCUAGGGAGAAAGAGTT against Smim10l2a here?
**A.** Its z-score is inactive: -1.47.

**Q.** With GGUUGACGAAUAAAUCAACTT against Aknad1 as the sequence, how does the z-score read?
**A.** The z-score was inactive: 1.21.

**Q.** For GCUAUUAAAAUAUGGGAAGTT against Olfr1314, which z-score is on record?
**A.** The z-score was inactive: 1.28.

**Q.** With “GGUAAUGGGAGCUAGUUUATT against 6330549D23Rik” as the sequence, how does the z-score read?
**A.** Its z-score is inactive: -0.259.

**Q.** For GGGUUUGAUUCAUCAAAAATT against Peli1, which z-score is on record?
**A.** The z-score was inactive: 0.314.

**Q.** With CCAAGAAUGUUUCCAUGUUTT against Slc12a5 as the sequence, how does the z-score read?
**A.** The z-score was inactive: -1.68.

**Q.** For GGAGCAAGUCUUGAAAAUUTT against Mtmr1, which z-score is on record?
**A.** Its z-score is inactive: 1.14.

**Q.** With GCUCAAACACUUACACACUTT against Alcam as the sequence, how does the z-score read?
**A.** The z-score was inactive: -0.616.

**Q.** With GGACUGAUAUCAUUUCUGATT against Flacc1 as the sequence, how does the z-score read?
**A.** Its z-score is inactive: -1.

**Q.** With CCUUCCAUGACCUAGUUAGTT against Mras as the sequence, how does the z-score read?
**A.** The z-score was inactive: -1.84.

**Q.** With CGGCUAUUCAGAGGACGAATT against Gnai3 as the sequence, how does the z-score read?
**A.** The z-score was inactive: -1.13.

**Q.** With GGGCAAAGGGAGUGACAAATT against Skp2 as the sequence, how does the z-score read?
**A.** The z-score was inactive: -1.95.

**Q.** For CCACUACUACUGGUAUGCUTT against Atp13a2, which z-score is on record?
**A.** Its z-score is inactive: -0.465.

**Q.** With CGAAUGGAGCCUUAUUACUTT against Klhl23 as the sequence, how does the z-score read?
**A.** The z-score was inactive: 0.478.

**Q.** Which z-score does the source give for GCCACUCAAAGUUCGAAGGTT against Tmem51 here?
**A.** The z-score was inactive: -0.515.

**Q.** Which z-score does the source give for CCUUGCAGCAUCAGGACUUTT against Ascl2 here?
**A.** Its z-score is active: 4.06.

**Q.** With GGUUUGGAUGUGAAACAAGTT against Myot as the sequence, how does the z-score read?
**A.** The z-score was inactive: -0.861.

**Q.** For CCUGUGACUUUAAUUGCUUTT against Zfp275, which z-score is on record?
**A.** Its z-score is inactive: 1.7.

**Q.** For GGUAGAAAUGGUGAGGUGATT against Pcdhgc5, which z-score is on record?
**A.** The z-score was inactive: -0.0853.

**Q.** With CCAUGUUCCAGUUAAUGACTT against Ptch1 as the sequence, how does the z-score read?
**A.** Its z-score is inactive: -0.419.

**Q.** With GGAAAAGCCUCAUUAGUUUTT against Txndc16 as the sequence, how does the z-score read?
**A.** The z-score was inactive: 0.0816.

**Q.** For GGAUGAGAAUUUUGAGGCCTT against Tex22, which z-score is on record?
**A.** The z-score was inactive: -0.836.

**Q.** With GGCUCAAGUAUGAGUCUCATT against Calhm2 as the sequence, how does the z-score read?
**A.** The z-score was inactive: 0.73.

**Q.** With GGCCUCUCAUUUCUAGUCATT against Kdelr2 as the sequence, how does the z-score read?
**A.** The z-score was inactive: -1.36.

**Q.** Which z-score does the source give for GCGUAUCGAAUGAAGAUUCTT against Gtf2a1l here?
**A.** Its z-score is inactive: -0.748.

**Q.** Which z-score does the source give for CCCACCAGAUUUCUACACCTT against Vsig2 here?
**A.** Its z-score is inactive: -2.

**Q.** With GGUGAUGCUUCUUGGAGACTT against Rab37 as the sequence, how does the z-score read?
**A.** The z-score was inactive: -0.59.

**Q.** For GGACCUUAAACAAGUACUATT against Zfp750, which z-score is on record?
**A.** Its z-score is inactive: 0.206.

**Q.** Which z-score does the source give for CCCACUUCGAGAGAAAAACTT against Pafah1b3 here?
**A.** Its z-score is inactive: -0.0954.

**Q.** Which z-score does the source give for GGUAAGAAGACAAACACUCTT against Ly6g6d here?
**A.** Its z-score is inactive: 0.237.

**Q.** Which z-score does the source give for GGUCUACGGCACCUUCUAUTT against Bsnd here?
**A.** Its z-score is inactive: -0.438.

**Q.** With “CCACCCAACAUCUAUGAGGTT against 1700037C18Rik” as the sequence, how does the z-score read?
**A.** The z-score was inactive: -0.978.

**Q.** Which z-score does the source give for GGCACAUGUCAGAAUAGGCTT against Pdlim5 here?
**A.** The z-score was inactive: -0.911.

**Q.** Which z-score does the source give for GGACUUCACAAGACUUCAATT against Nfam1 here?
**A.** Its z-score is active: 2.06.

**Q.** For GGUUUUGAUAACAGAACAUTT against Capza2, which z-score is on record?
**A.** Its z-score is inactive: 0.227.

**Q.** With CGAUGGAUAAACCUACACCTT against Clmn as the sequence, how does the z-score read?
**A.** The z-score was inactive: 1.51.

**Q.** For GGUUAUUAAGAGCACUUUCTT against Catsper3, which z-score is on record?
**A.** Its z-score is inactive: -0.0266.

**Q.** With GGGAAGCAGUGCUUCUUAGTT against Dars as the sequence, how does the z-score read?
**A.** Its z-score is inactive: -0.216.

**Q.** Which z-score does the source give for CCACAUCUAAAGUUCAAGATT against Tab2 here?
**A.** The z-score was inactive: -0.0772.

**Q.** For GGUCUCCUGUGGAAAUAUCTT against Olfr659, which z-score is on record?
**A.** The z-score was inactive: 0.342.

**Q.** With GGAAACUGUGUCAUUAUUATT against Arhgap9 as the sequence, how does the z-score read?
**A.** Its z-score is inactive: -0.402.
